Tested on: T1, α1-adrenoceptors of dorsal raphe serotonergic neurons
T1 construct: gene Adra1a
Conditions: competitive antagonist (inhibitory half-maximal concentration); 1 μM phenylephrine as agonist; 20 nM Way-100635 and synaptic blockers present; 34-36 °C; geometric mean of 15

EC50: 1980 nM
SMILES: O=c1n(CCCN2CCN(c3cccc(Cl)c3)CC2)nc2ccccn12 [Trazodone]

Source: paper PMC6763016 (PLoS ONE, 2019)
